Reference: patent US8481481B2 (Advanced Accelerator Applications S.A., priority 2008, dated 2013)
End groups of sequences in plain letters are not given here.

Test: general procedure: Fmoc solid-phase peptide synthesis
Conditions: whole synthesis, RP-HPLC

For MLSRAVCGTSRQLAPALGYLGSRQ, the “final HPLC purity” value was 99% and the “final purity (method not given)” value was 99%.
